From PubChem BioAssay (NCATS) come the findings set out here.

In general, AC50 refers to the concentration at which the activity in the assay is half-maximal.

The structures appear in SMILES notation. This is one part of the list. The main result of the screen is listed elsewhere. These columns were measured beside it and carry no call. Compounds called inactive in the main read-out are mostly missing here. Potencies come from curve fits of mixed quality, noted in brackets.

The assay is described as follows: qHTS Assay for Inhibitors of PDE-IV (AID 607). Particulars: HEK293 ACTOne CNG channel cells, membrane potential fluorescence; measured here: parental cell counter-screen. Put shortly: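 HEK293 ACTOne cells with CNG channel (1000/well), endogenous PDE4; membrane potential dye, compounds up to 22.9 uM final. Fluorescence Ex 535/Em 590; RO 20-1724 (100 uM final) as reference.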
(qHTS replaces the single test concentration by a dilution series.)
For `COc1ccc2nc3c(c(-c4ccccc4)c2c1)CCC3`, the AC50 is 10 µM [rising, single point].
With `O=C(c1cnccn1)N1CCC2(CCN(Cc3nccs3)CC2)CC1`, the AC50 was 3.98 µM [rising, single point].
For the compound `Cc1cccc(CNc2ncnc3ccc(-c4ccc5c(c4)OCO5)cc23)c1`, the AC50 was 10 µM [rising, single point].
Take `C=C[C@@]1(C)CC(=O)[C@@]2(O)[C@@]3(C)[C@H](O)CCC(C)(C)[C@@H]3[C@H](O)[C@H](OC(C)=O)[C@]2(C)O1`: the AC50 is 3.98 µM [rising, full curve].
Take `O=C(NCc1ccccn1)[C@H]1C[C@@H]1[C@H](NP(=O)(c1ccccc1)c1ccccc1)c1ccccc1`: the AC50 is 0.631 µM [rising, single point].
As for `OC[C@H](CCc1c[nH]c2ccccc12)c1c[nH]c2ccccc12`, the AC50 is 2 µM [falling, partial curve].
With `CC(C)NC(=O)N1CCC2(CC1)CCN(C(=O)c1ccncc1)CC2`, the AC50 was 3.98 µM [rising, single point].
As for `COC(=O)[C@@]1(Cc2ccc(F)cc2)[C@H]2c3cc(C(=O)N(C)C)n(Cc4ccsc4Br)c3C[C@H]2CN1C(=O)c1ccccc1`, the AC50 is 12.6 µM [rising, single point].
Next, `O=C(c1cccc(F)c1)N1CCC2(CCCN(c3ccccn3)C2)CC1`: 10 µM [rising, single point].
Turning to `COC(=O)[C@@]1(Cc2ccc(F)cc2)[C@H]2c3cc(C(=O)N4CCCC4)n(Cc4ccc(OC(F)(F)F)cc4)c3C[C@H]2CN1C(=O)c1ccccc1`, the concentration at half-maximal activity (AC50) was 1.58 µM [rising, full curve].
